Consider three molecules from article PMC6095612.

The chains behind the UniProt entries cited, without tags or fusion partners. Where a name states a change or a piece, a line headed by the entry shows the natural chain unless it says otherwise. A line that says so, or that is headed by a name, gives the form on record, which may keep a tag or linker. Residues count along the entry.
UniProt Q8TB45: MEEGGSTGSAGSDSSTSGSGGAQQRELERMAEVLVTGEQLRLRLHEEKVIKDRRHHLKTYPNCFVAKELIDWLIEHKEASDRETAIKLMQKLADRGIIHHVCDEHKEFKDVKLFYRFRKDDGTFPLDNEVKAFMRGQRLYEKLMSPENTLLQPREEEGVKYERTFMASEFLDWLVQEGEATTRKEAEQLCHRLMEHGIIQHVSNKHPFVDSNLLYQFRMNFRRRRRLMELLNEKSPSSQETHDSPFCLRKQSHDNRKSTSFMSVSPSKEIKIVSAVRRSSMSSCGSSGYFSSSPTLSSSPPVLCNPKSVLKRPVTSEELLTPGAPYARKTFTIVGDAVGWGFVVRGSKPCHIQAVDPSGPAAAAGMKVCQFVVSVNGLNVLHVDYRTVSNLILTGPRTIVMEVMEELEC
his/HA double tagged PDZ domain of DEPTOR: residues 330-407 of Q8TB45

Assay [1] addresses T1, FLAG-tagged UBTOR (UniProt Q9UPX6).
T1 sequence: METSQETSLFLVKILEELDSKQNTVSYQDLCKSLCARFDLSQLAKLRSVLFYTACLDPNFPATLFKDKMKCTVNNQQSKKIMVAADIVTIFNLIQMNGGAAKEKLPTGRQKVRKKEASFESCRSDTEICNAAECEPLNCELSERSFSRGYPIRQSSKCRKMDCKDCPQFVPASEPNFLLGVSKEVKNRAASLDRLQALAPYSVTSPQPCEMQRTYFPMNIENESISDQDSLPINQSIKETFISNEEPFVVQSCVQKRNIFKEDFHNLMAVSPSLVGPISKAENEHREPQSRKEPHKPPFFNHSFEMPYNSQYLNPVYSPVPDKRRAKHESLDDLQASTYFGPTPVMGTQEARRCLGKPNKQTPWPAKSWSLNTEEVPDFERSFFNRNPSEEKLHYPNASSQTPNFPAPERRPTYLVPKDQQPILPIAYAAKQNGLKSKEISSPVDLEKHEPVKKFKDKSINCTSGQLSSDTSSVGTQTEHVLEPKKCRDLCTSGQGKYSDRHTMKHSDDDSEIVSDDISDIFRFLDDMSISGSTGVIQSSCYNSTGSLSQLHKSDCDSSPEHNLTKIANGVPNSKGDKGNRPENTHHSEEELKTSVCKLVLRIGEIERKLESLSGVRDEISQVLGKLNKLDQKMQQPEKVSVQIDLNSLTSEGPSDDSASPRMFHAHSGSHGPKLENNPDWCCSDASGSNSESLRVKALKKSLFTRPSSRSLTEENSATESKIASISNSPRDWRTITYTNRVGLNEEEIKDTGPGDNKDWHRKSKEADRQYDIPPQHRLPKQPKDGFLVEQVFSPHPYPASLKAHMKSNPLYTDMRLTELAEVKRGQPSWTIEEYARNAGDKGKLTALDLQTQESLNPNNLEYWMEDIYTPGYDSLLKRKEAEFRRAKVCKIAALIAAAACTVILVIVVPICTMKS
The assay is described as follows: co-IP; HEK293T cells transfected with FLAG-tagged UBTOR (or UBTOR 1-467), treated with 5 μM PAO for 15 min; lysates immunoprecipitated with anti-FLAG-M2 beads at 4°C for 4 hours, blotted for endogenous proteins.

In assay [2] the target is T1, FLAG-tagged UBTOR. The assay is described as follows: co-IP; HEK293T cells transfected with FLAG-tagged UBTOR (or UBTOR 1-467), basal growth condition (vehicle DMSO, no PAO); lysates immunoprecipitated with anti-FLAG-M2 beads at 4°C for 4 hours, blotted for endogenous proteins.
The target in assay [3] is T2, N terminal region of UBTOR (UBTOR^1-467), expressed in cells (UniProt Q9UPX6).
T2 sequence: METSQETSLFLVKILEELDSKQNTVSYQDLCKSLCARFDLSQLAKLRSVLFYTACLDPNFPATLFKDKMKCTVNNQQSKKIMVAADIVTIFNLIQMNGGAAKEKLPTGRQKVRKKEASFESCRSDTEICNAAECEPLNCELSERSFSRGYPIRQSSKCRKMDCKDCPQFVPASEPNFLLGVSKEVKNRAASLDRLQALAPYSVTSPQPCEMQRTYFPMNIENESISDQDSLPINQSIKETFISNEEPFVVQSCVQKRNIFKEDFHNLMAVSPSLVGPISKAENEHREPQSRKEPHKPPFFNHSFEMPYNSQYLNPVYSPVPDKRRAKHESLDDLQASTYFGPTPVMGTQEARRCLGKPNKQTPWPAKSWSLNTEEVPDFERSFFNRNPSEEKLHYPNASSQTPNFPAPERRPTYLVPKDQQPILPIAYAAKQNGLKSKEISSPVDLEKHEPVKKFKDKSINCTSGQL
Described as above.

Assay [4] has as its target his/HA double tagged DEPTOR (full length) (UniProt Q8TB45). The assay is described as follows: pull-down; purified bacterial proteins mixed; his/HA-tagged DEPTOR proteins pulled down by nickel beads, immunoblotted; both purified. A general note: In western blotting, separated proteins are transferred to a membrane and probed.
Assay [5] has as its target his/HA double tagged PDZ domain of DEPTOR (UniProt Q8TB45). The description is as above.
The target in assay [6] is HA-tagged DEPTOR (UniProt Q8TB45). The assay is described as follows: co-IP; HA-tagged DEPTOR exogenously expressed; immunoprecipitated (anti-HA beads), blotted for endogenous UBTOR.

No constants are given. Whether binding was seen depends on the method and setting. For part of these data: In cells and extracts the contact can be indirect. Some binding calls cover weakened binding; strength is not graded here. For part of these data: Sequences can lack the tags named with a protein.

As to “endogenous DEPTOR (from UniProt Q8TB45 1-409)”, the binding entry in assay [1], in assay [2] and in assay [3] was “binds” each time.

B1: GST-tagged UBTOR^1-467 (domain or fragment, UniProt Q9UPX6 1-467)
chain: T2 sequence
For the molecule B1, the binding result in assay [4] and in assay [5] was “binds” in each case.

B2: endogenous UBTOR (protein, UniProt Q9UPX6 1-916)
chain: T1 sequence
For B2, the binding result in assay [6] is listed as “binds”.
